By UniProt entry, the sequences of proteins in these tests, tags left out.
UniProt Q99808, whole entry: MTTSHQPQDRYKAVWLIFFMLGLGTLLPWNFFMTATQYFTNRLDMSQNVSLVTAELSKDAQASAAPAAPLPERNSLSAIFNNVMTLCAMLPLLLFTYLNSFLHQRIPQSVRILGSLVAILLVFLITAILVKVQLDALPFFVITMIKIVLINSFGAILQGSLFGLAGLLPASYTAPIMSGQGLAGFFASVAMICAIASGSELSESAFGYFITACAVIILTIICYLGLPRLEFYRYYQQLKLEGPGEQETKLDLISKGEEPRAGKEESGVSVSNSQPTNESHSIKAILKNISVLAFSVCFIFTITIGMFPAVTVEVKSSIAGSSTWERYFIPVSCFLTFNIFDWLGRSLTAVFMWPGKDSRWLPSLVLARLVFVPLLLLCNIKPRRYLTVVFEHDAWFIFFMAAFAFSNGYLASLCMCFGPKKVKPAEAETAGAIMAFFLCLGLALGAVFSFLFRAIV

According to patent publication US8263592B2, “Equilibrative nucleoside transporter ENT1 inhibitors” (Janssen Pharmaceutica NV, priority 2007, dated 2012):

Target: human ENT1 transporter (Homo sapiens, UniProt Q99808)
Assay: hENT1-NBMPR-ERYTH binding assay ([3H]NBMPR, human erythrocytes)
Conditions: [3H]NBMPR 1 nM, washed human red blood cells 1:200, 30 minutes at room temperature; pIC50=-log(IC50)

Row | pIC50 values for ENT1 transporter inhibition | SMILES
1 | 8.56 | O=C1CC2(CCN(CCNC(=O)c3c(Cl)cccc3Cl)CC2)Oc2cc(NC3CCOCC3)c(Cl)cc21
2 | 9.23 | CC(=O)N1CCC(Oc2cc3c(cc2Cl)C(=O)CC2(CCN(CCNC(=O)c4c(Cl)cccc4Cl)CC2)O3)CC1 [100]

Structures were worked out from names or drawings and are uncertain.
